Experimental data from paper PMC1636664.

Amino acid sequences for entries named in this document (tags omitted).
UniProt P03372, whole entry, stated change not applied: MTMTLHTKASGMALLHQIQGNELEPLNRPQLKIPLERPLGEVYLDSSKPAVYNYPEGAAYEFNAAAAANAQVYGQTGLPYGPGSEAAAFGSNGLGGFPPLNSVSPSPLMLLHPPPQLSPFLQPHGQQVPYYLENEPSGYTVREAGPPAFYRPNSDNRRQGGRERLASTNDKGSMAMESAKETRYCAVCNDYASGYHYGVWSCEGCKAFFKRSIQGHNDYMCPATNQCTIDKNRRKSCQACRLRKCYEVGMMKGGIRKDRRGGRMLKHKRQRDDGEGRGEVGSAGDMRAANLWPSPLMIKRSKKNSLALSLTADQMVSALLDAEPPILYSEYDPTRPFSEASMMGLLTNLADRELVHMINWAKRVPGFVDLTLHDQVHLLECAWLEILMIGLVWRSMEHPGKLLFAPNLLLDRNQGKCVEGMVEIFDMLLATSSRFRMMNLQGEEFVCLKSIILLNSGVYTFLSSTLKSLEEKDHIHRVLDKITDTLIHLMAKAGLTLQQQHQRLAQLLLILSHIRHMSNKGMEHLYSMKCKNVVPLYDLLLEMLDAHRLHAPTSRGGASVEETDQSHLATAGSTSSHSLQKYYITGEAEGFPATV

Target: estrogen receptor alpha (ERα) (Homo sapiens (T47D cells, clone 10, ER+)) (UniProt P03372)
Experiment: EMSA
Details: 50 mM Tris pH 7.5, 4% glycerol, 1 mM MgCl2, 0.5 mM EDTA, 0.5 mM DTT, 50 mM NaCl, 0.05 mg/ml poly(dI-dC), 2-5 µg nuclear extract, room temperature 20 min, 6% gel, 0.5x TBE, protein in an extract, label: 32P end label
[1] = faint C1, inhibited by anti-ERα Ab

Question: Does “TACAGGACCTCGACCTAGCTG (double strand) [ERE-6 (putative)]” bind (C1 and C3, inhibited by anti-ERα Ab, competed by cold ERE-6)?
Answer: binds

Question: Does “AGTGGGAGACCTAGGGGTGGG (double strand) [ERE-4]” bind [1]?
Answer: binds more weakly

Question: Does “GGGCTTCCCGACCTTGCTGTA (double strand) [ERE-5]” bind [1]?
Answer: binds more weakly

Question: Does “AGAGGGTGGTCACCCACCCTTC (double strand) [ERE-1]” bind [1]?
Answer: binds more weakly

Question: Does “TACAAGATTTCGGACTAGCTG (double strand) [ERE-6 mut]” bind?
Answer: no binding

Question: Does “TCCAGGTCACTGTGACCCAAC (double strand) [Vit-ERE]” bind (C1, C2, C3, inhibited by anti-ERα Ab, competed by cold Vit-ERE)?
Answer: binds

Question: Does “TCCAGGACTCTGTAACGCAAC (double strand) [Vit-ERE mut]” bind?
Answer: no binding

Question: Does “TTGAACCCCAGACATTGTGATCC (double strand) [ERE-2 mut]” bind?
Answer: no binding

Question: Does “TTGAACCCCTGACCTTGTGATCC (double strand) [ERE-2]” bind (C1 and predominant C2, inhibited by anti-ERα Ab, competed by cold ERE-2)?
Answer: binds

Question: Does “AAGGCTCCCGGTGACCACTAGAG (double strand) [ERE-3]” bind [1]?
Answer: binds more weakly

Construct, isoform or probe ends are uncertain for at least one entry. Results from cells or extracts need not show a direct contact. Negatives hold for the conditions tested. At least one verdict was read from the data and is not stated in words by the source. Weaker means in comparison with the reference protein, sequence or condition of that experiment.
